Assay results as given in the supplement of paper PMC4635364.
Structures can show the parent of a compound that is named as a salt. Some of the results follow. This data set is noisy: repeats of one test often differ as much as different tests do.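 Human fetal ventral-midbrain neural progenitor line ReNCell VM, differentiated without mitogens. Images stained for doublecortin (early neurons) or tyrosine hydroxylase (dopaminergic neurons) were scored by blinded raters against untreated wells (0 = no change). Repeats and both raters were averaged, and compounds averaging 2 or higher were picked as hits for retesting.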

Legend:
ReNCell VM [1] = experiment: neuronal differentiation score (DCX+ cell fraction vs untreated, manual image score) (score (-3 to 3)); higher = more neuronal differentiation; details: 2 uM, 2 weeks
ReNCell VM [2] = experiment: dopaminergic neuron differentiation score (TH+ cell fraction vs untreated, manual image score) (score (0 to 3)); higher = more TH+ dopaminergic neuron differentiation; details: 2 uM, 4 weeks, BDNF 10 ng/ml + GDNF 10 ng/ml

Row | SMILES | neuronal differentiation score (ReNCell VM [1]; library: Phytochemical) | neuronal differentiation score (ReNCell VM [1]; library: Prestwick) | dopaminergic neuron differentiation score (ReNCell VM [2]; library: Phytochemical) | dopaminergic neuron differentiation score (ReNCell VM [2]; library: Prestwick) | neuronal differentiation score (ReNCell VM [1]; library: Tocriscreen) | dopaminergic neuron differentiation score (ReNCell VM [2]; library: Tocriscreen) | neuronal differentiation score (ReNCell VM [1]; library: LOPAC) | dopaminergic neuron differentiation score (ReNCell VM [2]; library: LOPAC)
1 | C=C(C)[C@@H]1[C@H]2OC(=O)[C@@H]1[C@]1(O)C[C@H]3O[C@]34C(=O)O[C@H]2[C@]14C [Picrotoxinin] | inactive: 0 | inactive: 0 | inactive: 0 | inactive: 0 | – | – | – | –
2 | CC[C@@H](CO)NC(=O)[C@@H]1C=C2c3cccc4[nH]cc(c34)C[C@H]2N(C)C1 [Methylergometrine maleate] | – | inactive: 0 | – | inactive: 0 | inactive: 0 | inactive: 0 | – | –
3 | NCC1(CC(=O)O)CCCCC1 [Gabapentin] | – | inactive: 0 | – | inactive: 0 | – | – | inactive: 0 | inactive: 0
4 | Fc1ccc(C(OCCN2CCN(CCCc3ccccc3)CC2)c2ccc(F)cc2)cc1 | – | inactive: 0 | – | inactive: 0 | inactive: 0 | inactive: 0 | inactive: 0 | inactive: 0
5 | COC(=O)C1=CCCN(C)C1 [Arecoline hydrobromide] | inactive: 0 | – | inactive: 0 | – | – | – | inactive: 0 | inactive: 0
6 | CCCN1CCC[C@@H]2Cc3n[nH]cc3C[C@H]21 [(-)-Quinpirole hydrochloride] | inactive: 0 | – | inactive: 0 | – | inactive: 0 | inactive: 0 | inactive: 0 | inactive: 0
7 | Oc1ccc2c3c1O[C@H]1c4[nH]c5ccccc5c4C[C@@]4(O)[C@@H](C2)N(CC2CC2)CC[C@]314 [Naltrindole hydrochloride] | – | – | – | – | inactive: 0 | active: 2 | active: 2 | inactive: 1
8 | COc1cc([C@@H]2c3cc4c(cc3[C@H](O)[C@H]3COC(=O)[C@H]23)OCO4)cc(OC)c1OC [Podophyllotoxin] | inactive: 0 | inactive: 0 | inactive: 0 | inactive: 0 | – | – | inactive: 0 | inactive: 0
9 | COc1ccc(Cc2nccc3cc(OC)c(OC)cc23)cc1OC [Papaverine hydrochloride] | inactive: 0 | inactive: 0 | inactive: 0 | inactive: 0 | – | – | inactive: 0 | inactive: 1
10 | O=C(Cc1ccc(Cl)c(Cl)c1)N1CCCCC1CN1CCCC1 (stereo unspecified) | – | – | – | – | inactive: 0 | inactive: 0 | inactive: 0 | inactive: 0
11 | C[C@@H]1CC[C@H]2[C@@H](C)C(=O)O[C@@H]3O[C@@]4(C)CC[C@@H]1[C@]32OO4 [Artemisinin] | inactive: 0 | inactive: 0 | inactive: 0 | inactive: 1 | inactive: 0 | inactive: 0 | – | –
12 | COc1ccc(OC)c(C(O)C(C)N)c1 (stereo unspecified) [Methoxamine hydrochloride] | – | inactive: 0 | – | inactive: 0 | – | – | inactive: 0 | inactive: 0
13 | CC[C@@]1(O)C(=O)OCc2c1cc1n(c2=O)Cc2cc3ccccc3nc2-1 [Camptothecine (S,+)] | inactive: 0 | inactive: 0 | inactive: 0 | inactive: 0 | – | – | – | –
14 | C/C(O)=C(\C#N)C(=O)Nc1cc(Br)ccc1Br | – | – | – | – | inactive: 0 | inactive: 0 | inactive: 0 | inactive: 0
15 | C[C@@H]1O[C@@H](O[C@H]2C[C@@H](O)[C@]3(CO)[C@H]4[C@H](O)C[C@]5(C)[C@@H](C6=CC(=O)OC6)CC[C@]5(O)[C@@H]4CC[C@]3(O)C2)[C@H](O)[C@H](O)[C@H]1O [Ouabain] | – | – | – | – | inactive: 0 | inactive: 0 | inactive: 0 | inactive: 0
16 | NCCC(O)C(=O)NC1CC(N)C(OC2OC(CN)C(O)[C@H](O)[C@@H]2N)[C@H](OC2O[C@H](CO)[C@@H](O)[C@@H]2O)[C@@H]1O (stereo partly specified) [Butirosin disulfate salt] | inactive: -1 | inactive: 0 | inactive: 0 | inactive: 0 | – | – | – | –
17 | O=c1c2ccccc2[se]n1-c1ccccc1 [Ebselen] | – | inactive: 0 | – | inactive: 0 | – | – | inactive: -2 | inactive: 0
18 | COc1ccc(CCN2CCC(Nc3nc4ccccc4n3Cc3ccc(F)cc3)CC2)cc1 [Astemizole] | – | inactive: 0 | – | inactive: 0 | inactive: 0 | inactive: 0 | – | –
19 | Nc1ccncc1 [4-Aminopyridine] | – | – | – | – | inactive: 0 | inactive: 0 | inactive: 0 | inactive: 0
20 | CN1[C@@H]2CC[C@H]1C[C@@H](OC(=O)[C@H](CO)c1ccccc1)C2 [Hyoscyamine (L)] | inactive: 0 | inactive: 0 | inactive: 0 | inactive: 0 | – | – | – | –
21 | CN1CCC(c2c[nH]c3ccc(O)cc23)CC1 | – | – | – | – | inactive: 0 | inactive: 0 | inactive: 0 | inactive: 0
22 | CCOC(=O)c1cncn1[C@H](C)c1ccccc1 [Etomidate] | – | inactive: 0 | – | inactive: 0 | inactive: 0 | inactive: 0 | – | –
23 | C[C@@H]1C[C@@H]([C@H](O)CC2CC(=O)NC(=O)C2)C(=O)[C@@H](C)C1 [Cycloheximide] | inactive: 0 | inactive: 0 | inactive: 0 | inactive: 0 | – | – | – | –
24 | Oc1ccc2c3c1O[C@H]1[C@@H](O)CC[C@@]4(O)[C@@H](C2)N(CC2CCC2)CC[C@]314 [Nalbuphine hydrochloride] | – | inactive: 0 | – | inactive: 0 | – | – | inactive: 0 | inactive: 0
25 | COc1ccc(-n2nc(C(F)(F)F)cc2-c2ccc(Cl)cc2)cc1 | – | – | – | – | inactive: 0 | inactive: 0 | inactive: 0 | inactive: 0

Row | SMILES | neuronal differentiation score (ReNCell VM [1]; library: Phytochemical) | neuronal differentiation score (ReNCell VM [1]; library: Prestwick) | dopaminergic neuron differentiation score (ReNCell VM [2]; library: Phytochemical) | dopaminergic neuron differentiation score (ReNCell VM [2]; library: Prestwick) | neuronal differentiation score (ReNCell VM [1]; library: Tocriscreen) | dopaminergic neuron differentiation score (ReNCell VM [2]; library: Tocriscreen) | neuronal differentiation score (ReNCell VM [1]; library: LOPAC) | dopaminergic neuron differentiation score (ReNCell VM [2]; library: LOPAC)
26 | CC(C)[C@@]1(NC(=O)[C@@H]2C[C@@H]3c4cccc5[nH]cc(c45)C[C@H]3N(C)C2)O[C@@]2(O)[C@@H]3CCCN3C(=O)[C@H](Cc3ccccc3)N2C1=O [Dihydroergocristine mesylate] | inactive: 0 | – | inactive: 0 | – | inactive: 0 | inactive: 0 | – | –
27 | COc1ccc(CNC(=O)/C=C/c2ccc3[nH]cc(CCN(C)C)c3c2)cc1 | – | – | – | – | inactive: 0 | inactive: 0 | inactive: 0 | inactive: 0
28 | CC(=O)[C@H]1CC[C@H]2[C@@H]3CC[C@H]4C[C@](C)(O)CC[C@]4(C)[C@H]3CC[C@]12C [Ganaxolone] | – | – | – | – | inactive: 0 | inactive: 0 | inactive: 0 | inactive: 0
29 | CN1[C@@H]2CC[C@H]1C[C@@H](OC(=O)C(CO)c1ccccc1)C2 (stereo partly specified) [Atropine sulfate monohydrate] | inactive: 1 | inactive: 0 | inactive: 0 | inactive: 0 | – | – | – | –
30 | CC[C@@H](CO)NC(=O)[C@@H]1C=C2c3cccc4c3c(cn4C)C[C@H]2N(C)C1 [Methysergide maleate] | – | – | – | – | inactive: 0 | inactive: 0 | inactive: 0 | inactive: 0
31 | CCCN(CCC)C1Cc2cc(OC)c(OC)cc2C1 | – | – | – | – | inactive: 0 | inactive: 0 | inactive: 0 | inactive: 0
32 | c1ccc(CCCN2CCN(CCOC(c3ccccc3)c3ccccc3)CC2)cc1 | – | – | – | – | inactive: 0 | inactive: 0 | inactive: 0 | inactive: 0
33 | O=C(O)c1nn(Cc2ccc(Cl)cc2Cl)c2ccccc12 [Lonidamine] | – | – | – | – | inactive: 0 | inactive: 0 | inactive: 0 | inactive: 0
34 | c1ccc(C2CC2)c(OCC2=NCCN2)c1 [Cirazoline hydrochloride] | – | – | – | – | inactive: 0 | inactive: 0 | inactive: 0 | inactive: 0
35 | O=C(N[C@H]1CN2CCC1CC2)c1ccc(Cl)cc1 | – | – | – | – | inactive: 0 | inactive: 0 | inactive: 0 | inactive: 0
36 | Cc1c2ccncc2c(C)c2c1[nH]c1ccccc12 [Ellipticine] | inactive: 0 | – | inactive: 0 | – | – | – | inactive: 0 | inactive: 0
37 | NCCc1c[nH]c2ccc(O)cc12 [Serotonin hydrochloride] | – | inactive: 0 | – | inactive: 1 | – | – | inactive: 0 | inactive: 0
38 | O=c1[nH]oc2c1CCNC2 [THIP hydrochloride] | – | – | – | – | inactive: 0 | inactive: 0 | inactive: 0 | inactive: 0
39 | C[C@]12CC[C@H](O)C[C@H]1CC[C@@H]1[C@@H]2CC[C@]2(C)[C@@H](C3=CC(=O)OC3)CC[C@]12O [Digitoxigenin] | inactive: 0 | inactive: 0 | inactive: 0 | inactive: 0 | – | – | – | –
40 | NCCc1c[nH]c2ccc(C(N)=O)cc12 [5-Carboxamidotryptamine maleate] | – | – | – | – | inactive: 0 | inactive: 0 | inactive: 0 | inactive: 0
41 | C=CCN1CC[C@]23c4c5ccc(O)c4O[C@H]2/C(=N/NC(=O)c2ccccc2)CC[C@@]3(O)[C@H]1C5 [Naloxone benzoylhydrazone] | – | – | – | – | inactive: 0 | inactive: 0 | inactive: 0 | inactive: 0
42 | CC(Cc1ccc(O)cc1)NCC(O)c1cc(O)cc(O)c1 (stereo unspecified) [Fenoterol hydrobromide] | – | inactive: 0 | – | inactive: 0 | – | – | inactive: 0 | inactive: 0
43 | CCOC(=O)c1ncn2c1[C@@H]1CCCN1C(=O)c1cc(OC)ccc1-2 | – | – | – | – | inactive: 0 | inactive: 0 | inactive: 0 | inactive: 0
44 | CC1=NN=C(c2ccc(N)cc2)c2cc3c(cc2C1)OCO3 | – | – | – | – | inactive: 0 | inactive: 0 | inactive: 0 | inactive: 0
45 | S=C(NC1CCCCC1)N1CCC(c2cnc[nH]2)CC1 [Thioperamide maleate] | – | inactive: 0 | – | inactive: 0 | – | – | inactive: 0 | inactive: 0
46 | CNCC(O)c1ccc(O)cc1 (racemic) [(+,-)-Synephrine] | inactive: 0 | inactive: 0 | inactive: 0 | inactive: 0 | – | – | – | –
47 | NCCCNCCSP(=O)(O)O [Amifostine] | – | inactive: 0 | – | inactive: 0 | – | – | inactive: 0 | inactive: 0
48 | N=C(N)NN [Aminoguanidine hydrochloride] | – | – | – | – | inactive: 0 | inactive: 0 | inactive: 0 | inactive: 0
49 | CCCC(C)(COC(N)=O)COC(=O)NC(C)C (stereo unspecified) [Carisoprodol] | – | inactive: 0 | – | inactive: 0 | – | – | inactive: 0 | inactive: 0

Arranged by molar mass (descending): some entries from above.
Row | SMILES | neuronal differentiation score (ReNCell VM [1]; library: Phytochemical) | neuronal differentiation score (ReNCell VM [1]; library: Prestwick) | dopaminergic neuron differentiation score (ReNCell VM [2]; library: Phytochemical) | dopaminergic neuron differentiation score (ReNCell VM [2]; library: Prestwick) | neuronal differentiation score (ReNCell VM [1]; library: Tocriscreen) | dopaminergic neuron differentiation score (ReNCell VM [2]; library: Tocriscreen) | neuronal differentiation score (ReNCell VM [1]; library: LOPAC) | dopaminergic neuron differentiation score (ReNCell VM [2]; library: LOPAC)
43 | CCOC(=O)c1ncn2c1[C@@H]1CCCN1C(=O)c1cc(OC)ccc1-2 | – | – | – | – | inactive: 0 | inactive: 0 | inactive: 0 | inactive: 0
49 | CCCC(C)(COC(N)=O)COC(=O)NC(C)C (stereo unspecified) [Carisoprodol] | – | inactive: 0 | – | inactive: 0 | – | – | inactive: 0 | inactive: 0
40 | NCCc1c[nH]c2ccc(C(N)=O)cc12 [5-Carboxamidotryptamine maleate] | – | – | – | – | inactive: 0 | inactive: 0 | inactive: 0 | inactive: 0
